# Data reported in the supplement of paper PMC10338343.
# ± gives the standard deviation. The entries are a selection whose mix differs from that of the whole data set. Many of these values have a large error.
# Test system: MILI (PIWIL2) piRISC loaded with Kctd7 piRNA (26 nt)
# Test: pre-steady-state target cleavage rate (min^-1); MIWI and MILI are mouse PIWI proteins and EfPiwi is from a freshwater sponge; tags in brackets are library labels; higher = faster piRNA-guided slicing of the target
# Details: guide: Kctd7 piRNA 5'p-UGUUAAUCUCUCAGAGAAGGUGACAG; auxiliary factor: 500 nM mouse GTSF1
# Experimental: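 Cleave-'n-Seq: a library of target RNAs (target site embedded in constant flanks, ACAGCATTCCGCGTTAGTGATATCCG... 5' flank; DNA-blocked outside the site) at 0.1 nM was incubated with 1 nM active mouse MILI or MIWI piRISC (synthetic 5'-monophosphorylated piRNA guide) with or without 500 nM mouse GTSF1 at 33 °C for 1 min to 16 h. Uncleaved targets were sequenced and normalised to non-target controls, and the pooled three trials were fitted to a burst-and-steady-state model to give the pre-steady-state cleavage rate (min^-1; k3 is constrained to at most 1e-4). Sequence is the target site only; target names encode pairing extent (gX:gY) and contiguous / 1-mismatch / 2-mismatch / bulge geometry. Fits with R² ≤ 0 are excluded.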
row,Sequence,pre-steady-state target cleavage rate
1,UAGUGAGUGACCUUGUCUGAGAGAUUAACA,0.0726 ± 0.014
2,UAGUGACUCACCUUCUCUGAGAGAAAUAGA,0.002 ± 0.0062
3,UAGUGACAGUGGAAGAGACACUCAUUAACA,0.000371 ± 0.016
4,UAGUCUGUGUGCUUCUCUGAGAGAUUAAGA,0.00145 ± 0.0028
5,UAGUGAGUCAGCUACUCUGAGAGAUUAACA,0.135 ± 0.01
6,UAGUGACAGUGCAUCUCUGAGAGUUUAACA,0.00108 ± 0.0066
7,UAGUGUGAGUCCUUCUCUGAGAGAUUUUGA,0.00162 ± 0.0052
8,UAGUGACAGACCUUCUGUGAGUGAUUAACA,0.00248 ± 0.0057
9,UAGUGACAGUGCAUCUCUCAGAGAUUAACA,0.00252 ± 0.0038
10,UAGUGUGUGCACCUUCUCUGAGAGAUUAACA,0.195 ± 0.021
11,UAGUGACUCACCUUCUCUGACAGAUUAUGA,0.00329 ± 0.0038
12,UAGUGACUCACCUUCUCUGAGACAAUAACA,0.00231 ± 0.0053
13,UAGUGACAGACCUUCUCUGAGAGAUUUAGA,0.00153 ± 0.0093
14,UAGUGACAGACCUACUCUGAGUGAUUAACA,0.00137 ± 0.0069
15,UAGUGACAGACCUUCUCUGAGAGUAUAUGA,0.000792 ± 0.013
16,UAGUGAGUCACCUUCUCUCAGAGUUUAACA,0.0248 ± 0.0099
17,UAGUGACACACCUUCUCUGAGACUAUAACA,0.000681 ± 0.011
18,UAGUGACAGUGGACCUCUGAGAGAUUAACA,0.00174 ± 0.0044

row,Sequence,pre-steady-state target cleavage rate
1,UAGUGUGUCACCUACUCUGAGAGAUUAUGA,0.0343 ± 0.015
2,UAGUGACACACCAACUCUGAGAGAUUUUGA,0.000153 ± 0.019
3,UAGUGACAGACCUUCUCUGAGAGAUAAUCA,0.00507 ± 0.0052
4,UAGUGACUCACCUUCUCUGAGGAGAUUAACA,0.00396 ± 0.0044
5,UAGUGACAGUGGAAGAGACAGAGAUUAUACA,0.000308 ± 0.027
6,UAGUGACACACCUUCUCUGAUGAGAUUAACA,0.00949 ± 0.0043
7,UAGUGACACACCUUCUCACAGAGAUUAUGA,0.00158 ± 0.0073
8,UAGUGACAGUGGAAGUCUGAGAGAUUAACU [g2:g15:cont:t1U],0.00103 ± 0.0037
9,UAGUGUGUCACCUUCUCUGAGACUAUAACA,0.00359 ± 0.006
10,UAGUGACAGUGCUUCUCUGAGACGAUUAACA,0.00197 ± 0.0034
11,UAGUGACAGUGGAAGAGACAGAGAAUAUCA,0.000361 ± 0.019
12,UAGUGACUCACCUUCUCUGAGUGAUAAACA,0.000862 ± 0.0082
13,UAGUGACAGUCCUACUCUGAGUGAUUAACA,0.000873 ± 0.0076
14,UAGUGUGUCACCUUCUGUGAGUGAUUAACA,0.00317 ± 0.0049
15,UAGUGUGUCACGAUCUCUGAGAGAUUUUGA,0.00172 ± 0.0062
16,UAGUGACAGUCGUUCUCUGAGACAUUAACA,0.000881 ± 0.0093
17,UAGUGACUCACCUUCUCUGAGACAUUUACA,0.00258 ± 0.0046
18,UAGUCUGUCACCUUCUCUGUGAGUUUAACA,0.0314 ± 0.0059

# Pulled one by one from the entries so far:
row,Sequence,pre-steady-state target cleavage rate
5,UAGUGACAGUGGAAGAGACAGAGAUUAUACA,0.000308 ± 0.027
2,UAGUGACACACCAACUCUGAGAGAUUUUGA,0.000153 ± 0.019
